Source: US20230183342A1 (YISSUM RESEARCH DEVELOPMENT COMPANY OF THE HEBREW …, published 2023)
Results are given in words; binding and its absence hold for the method and conditions named. Some entries that bind do so weakly or less than the wild type. One block for each binder: values may come before it.

Chains of the proteins cited; added tags and fusions are not shown. Lines headed by an entry give the natural chain unless they say otherwise; changes in a name come on top. Residues count along the entry.
UniProt O76036: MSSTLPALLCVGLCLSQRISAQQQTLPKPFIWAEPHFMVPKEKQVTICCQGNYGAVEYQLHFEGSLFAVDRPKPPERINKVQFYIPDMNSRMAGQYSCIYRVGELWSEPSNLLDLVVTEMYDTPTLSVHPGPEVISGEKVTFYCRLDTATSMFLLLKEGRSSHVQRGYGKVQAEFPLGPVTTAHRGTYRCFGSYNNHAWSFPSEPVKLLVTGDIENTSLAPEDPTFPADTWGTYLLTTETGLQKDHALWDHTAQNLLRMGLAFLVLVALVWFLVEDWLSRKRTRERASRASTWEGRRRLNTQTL
human NKp46 on cells (BW NKp46 transfectants; activated primary human NK cells): residues 22-304 of O76036
NKp46-Fc fusion protein (NKp46 ectodomain and human IgG1 Fc fragment): residues 22-258 of O76036

Columns and labels:
[1] = molecular target: Acro Biosystems Human NKp46 expressed in HEK293 cells (human) (UniProt O76036); assay: ELISA on coated Acro Biosystems human NKp46, detection anti-Hu Kappa HRP / TMB, absorbance 450 nm (% Absorbance Normalized)
[2] = molecular target: human NKp46 on cells (BW NKp46 transfectants; activated primary human NK cells) (human) (UniProt O76036); assay: flow cytometry on BW transfectant cells expressing NKp46
[3] = molecular target: human NKp46 on cells (BW NKp46 transfectants; activated primary human NK cells) (human) (UniProt O76036); assay: FACS of activated bulk NK cells incubated with the mAb for 8 hrs at 4 C or 37 C, secondary antibody anti-m647
NKp46 D2 domain-Ig = molecular target: T1, NKp46 D2 domain-Ig (human, UniProt O76036 121-254); assay: ELISA, Ig-D2 plated at 0.1 ug/well, OD650nm
T1 construct: also called D2-Ig; Ig-D2; not shown: Ig part not described for this construct

[4] = molecular target: human NKp46 on cells (BW NKp46 transfectants; activated primary human NK cells) (human) (UniProt O76036); assay: flow cytometry on IL-2 activated primary human NK cells
[5] = molecular target: human NKp46 on cells (BW NKp46 transfectants; activated primary human NK cells) (human) (UniProt O76036); assay: FACS dose response on primary activated bulk human NK cells of two donors, mAb 0.5 to 0.0001 ug/well, secondary antibody m-647
[6] = molecular target: human NKp46 on cells (BW NKp46 transfectants; activated primary human NK cells) (human) (UniProt O76036); assay: dose response FACS staining of activated primary NK cells from two donors
[7] = molecular target: NKp46-Fc fusion protein (NKp46 ectodomain and human IgG1 Fc fragment) (human) (UniProt O76036); assay: ELISA, 46-Ig plated at 0.1 ug/well, mAb added, biotin anti-mouse / streptavidin-POD / TMB, OD 650nm

binding [1]: binds
B1: humanized K3 antibody having mutated IgG4 (antibody, V domains shown)
VH: EVQLQQSGAEVKKPGSSVKVSCKTSGYTFTEYSMHWVRQAPGKSLEWFGGISPNSGGTSYNQKFKGRATLTVDKSSSTAYMELSSLRSEDTAVYYCARRDFHSSFDYWGQGTTVTVSS
VL: DIVLTQSPATLSLSPGERATLSCRASQSISDYLHWFQQKPHESPRLLIKYASQSISGIPARFSGSGSGSDFTLTISSLEPEDFAVYYCQNGHSFPLTFGPGTKVDIKR
notes: detected with an anti-human kappa secondary antibody

binding [2]: binds
binding [3]: binds
binding (NKp46 D2 domain-Ig): binds
binding [4]: binds
binding [5]: binds
binding [6]: binds
binding [7]: binds
B2: anti-NKp46 monoclonal antibody clone K3 (antibody, V domains shown)
VH: EVQLQQSGPELVKPGTSVKISCKTSGYTFTEYSMHWVKQSHGKSLEWFGGISPNSGGTSYNQKFKGKATLTVDKSSSTAYMELRSLTSEDSAVYYCARRDFHSSFDYWGQGTTLTVSS
VL: DIVLTQSPATLSVTPGNSVSLSCRASQSISDYLHWFQQKSHESPRLLIKYASQSISGIPSRFSGSGSGSDFTLSINSVEPEDVGVYYCQNGHSFPLTFGPGTKLELK
